Measurements from the supplement of paper PMC5949888.
± gives the standard deviation of the averaged measurements. Most values lie at the floor of the assay. Slopes are relative: functional sequences can read slightly below zero.

Each substance was assayed on Saccharomyces cerevisiae PS128 hsf1 delta, HSF1(1-493) fusion (assay: growth estimate (transactivation domain function in HSF1 fusion, heat-shock survival) (a.u. (slope of normalised read count over time)); higher = stronger growth at 37°C, i.e. more transactivation activity). Conditions: library: random library.

Substance	growth estimate
KFNHGVYQLLLQPRDKPAIA	< -0.25
KFQERKHRVVLVYQVTNET	-0.243
KFQLPMIAGREGYAVSKRC	< -0.25
KFRVLASCYTS	< -0.25
KFSVLLWCRHK	< -0.25
KFTRVAAPSAWQDGQRILSE	< -0.25
KFTSYDPYSRQ	< -0.25
KFVNVRRCTHSPRVDAPREP	< -0.25
KGAIYSRHQVS	< -0.25
KGD	-0.248 ± 0.003
KGDSAVNARDHRDIDGLDNE	< -0.25
KGEDCPHENGSRLTN	< -0.25
KGEGQGEVPSAYRVVVLSVT	< -0.25
KGF	< -0.25
KGGAGSGLSYR	< -0.25
KGGGKNSPMTLSANPL	< -0.25
KGGQTKVSRPPSIGLPRCSH	< -0.25
KGGVMTSPDSLVSDYSEIGA	< -0.25
KGHRTAPTRR	< -0.25
KGIGRR	< -0.25
KGLEPITTCGVYHGSHWTGG	< -0.25
KGLPGTGRLNAQATAELRST	< -0.25
KGLRTGWP	< -0.25
KGPPQQVFAWVLRTSWPALE	< -0.25
KGQCPRLASNLDTGSTTASR	< -0.25

Substance	growth estimate
KGQPMTVGLRLMPIRNPLVV	< -0.25
KGRPIFSSTLFSCAAH	< -0.25
KGRSGRSDATKEAID	< -0.25
KGVATVGDGLRAVGKQTVPP	< -0.25
KGVIDD	< -0.25
KGVMPAQNSSLRPQGRPKGA	< -0.25
KGVQRSLSRGLRAPFT	< -0.25
KGVWVDGTASSGRYRNKYPE	0.0553
KGWAACT	< -0.25
KGYLTALMWGMITPHSIR	< -0.25
KHIREL	< -0.25
KHIRLEVISLFCFYGGVHRP	< -0.25
KHMFCY	< -0.25
KHMGREEISVMWVGPLQGLG	< -0.25
KHVRLHGYPLPVRRTDITTV	< -0.25
KIDERVNSI	< -0.25
KIDKSPLCFPTLGQVRLYRC	< -0.25
KIDMPPRIFGLIGGDPRLSD	< -0.25
KIETRIQTSGL	< -0.25
KIGL	< -0.25
KIGSHAL	< -0.25
KIPPLQSEFRRPIAGAVCVT	< -0.25
KIQKTDGDHTLSSRNLGGAM	-0.222
KIRS	< -0.25
KITHLTP	-0.25

Substance	growth estimate
KIVLLAPKTGEKRGYPGRFS	< -0.25
KIVPWAT	< -0.25
KIYAIRSSAYTHFKESYSEA	< -0.25
KIYLIVSRISH	< -0.25
KKAERVLHLHRQLRRGIVLV	< -0.25
KKATMVTREETQHYGCS	< -0.25
KKHRHLNALATTYNRCTYNS	< -0.25
KKIASGVAGSLALEG	< -0.25
KKLSDRDRPLRSGDGSCLGH	< -0.25
KKNRSMRQDLNLAFQARVTV	< -0.25
KKSGAGGIPATRTSAGGYSM	< -0.25
KKSGRLASAENGGLYIRNMP	-0.134
KKTRHWKIVKMNGFLKPVQS	< -0.25
KLDEVGLGR	< -0.25
KLEFLVRCVKERAVGA	< -0.25
KLEVGRVLIWFLSWIPRICD	< -0.25
KLGFSSTSTNSGIPLGVRDS	< -0.25
KLIPVRPVVRSQLY	< -0.25
KLMWRTRKLCIGRT	< -0.25
KLNGPRGHVTGLHWSPSSVG	< -0.25
KLNREVGYRVLIYGPPATKS	< -0.25
KLPAKGDTDQN	< -0.25
KLPLKYLSCTSRPNPAKYST	< -0.25
KLPTSAVPL	< -0.25
KLQIASKDKVKEIGRERNC	-0.0562

Substance	growth estimate
KLRCFG	< -0.25
KLRHVLALPGTSPEGSSCRP	< -0.25
KLRLGERRSAEASVKGWRPA	< -0.25
KLRLLGSVEWEFVADRLIAS	< -0.25
KLRSPDLAMPRQHIWLGDRW	< -0.25
KLSSGSLADREMGTPT	< -0.25
KLTAPRRRMTSTYDGYC	< -0.25
KLVEQAKVLLISYWRIEPAG	< -0.25
KLVSLLLSRVGVSGIS	< -0.25
KLVYMLTAHGCVAMLYATDL	< -0.25
KLWSSLIGIR	< -0.25
KMAFSRPCLYAYCRYRSAVW	< -0.25
KMPSRVNPYHNTAPTLMYVV	< -0.25
KNDRVDIE	-0.243
KNERR	< -0.25
KNGDTGWQ	< -0.25
KNGTYEIGES	< -0.25
KNRPGSGVDMVFPQAGVGHG	< -0.25
KNRREVC	< -0.25
KNTATSRAQSRVADAKVDGH	< -0.25
KNTGGSSSTLRPYIGD	< -0.25
KNVSEWCHGGRRRNYHYLSA	< -0.25
KPEAGARRIITGFFCTTSGV	< -0.25
KPEIARLSLGFQS	< -0.25
KPERQIH	< -0.25

Substance	growth estimate
KPLDMSSLLMPGGIRPTGPG	< -0.25
KPLFINYG	< -0.25
KPPQVLPHSSQAESLVSYDS	-0.0664
KPQRKILS	< -0.25
KQCGVSCGISPIYKTVFTMF	< -0.25
KQCHPISETSAGTEIRSETP	< -0.25
KQFARCRPPPRWAGRL	-0.182
KQGGRE	< -0.25
KQLALGNCYRREWGGATGRG	< -0.25
KQLHVVMRAFWSPGHISQAR	< -0.25
KQLRLAGCPNANTALLSAMS	-0.219
KQPAIGDIRTSTIQCTHVPS	< -0.25
KQPLIVSFHSSGMPVPGRVN	< -0.25
KQQWQSPQSGEGGSPLSGHS	< -0.25
KQTRRIEGF	< -0.25
KQTWN	< -0.25
KQVAGSGHLGDR	< -0.25
KQVQRVGDASSISRREATPA	< -0.25
KQVYSEVVEWPSRVKYGLCL	-0.245
KQY	< -0.25
KQYRWRV	< -0.25
KRCIQIYSA	< -0.25
KRDSN	< -0.25
KRERP	< -0.25
KRETSKPVFWKRKKLRCGNH	< -0.25

Substance	growth estimate
KRFEQSACSHLLRGSSLGER	< -0.25
KRFHTASGIL	-0.192
KRGLVVTSGQFNQ	< -0.25
KRGPHCGRTHLGTVRI	-0.245
KRGSWNAPVHYGRRGLVQSK	< -0.25
KRHRRMTRLPDRSHEYYPTC	< -0.25
KRKRGQPRVYQV	< -0.25
KRKSMSIWQDY	< -0.25
KRKVDR	< -0.25
KRLLDYPTRR	< -0.25
KRLLQKGGG	< -0.25
KRLNGMFLRTVNALDTSSRQ	< -0.25
KRLNHVPETRGNVRSG	< -0.25
KRNPHGHRCGGICGSCSFAA	< -0.25
KRNRGATPWG	< -0.25
KRPLNRAQYKRLNLGSSIVL	< -0.25
KRRAAPIISSWYGT	< -0.25
KRRHFKNAPI	< -0.25
KRRLSGQT	< -0.25
KRSCLYRVVSRTWSSGVTTI	< -0.25
KRTKRRATQGRDRQTRGASI	< -0.25
KRTLCNLIGRKPDPPLFPAA	-0.246
KRVCNALLRAG	< -0.25
KRVTFLDRLLLIRIFGR	< -0.25
KRWTVKGKDRKWHMQCSLTR	< -0.25

Substance	growth estimate
KSACMKNFVVSRSV	< -0.25
KSADT	< -0.25
KSAFPIFLLGGRPLQPESSM	< -0.25
KSAGGLGLA	< -0.25
KSAGKVWGARGTS	< -0.25
KSAYTFGRARLNSEDAGITG	< -0.25
KSDCRRNAVLVCDCHTQFGY	< -0.25
KSDGDSRCYQQKWRTRIPII	< -0.25
KSDLSATPL	< -0.25
KSFPRTRT	< -0.25
KSGC	< -0.25
KSGGSQAMEPTQWTNTVGQV	< -0.25
KSGMYWGLLEPLSMPKQCSP	< -0.25
KSGRDLYVAGIAKIASPCGR	< -0.25
KSGRKEDCRLTKKAKQRKTA	< -0.25
KSGSDSLWGMVTVASVSVWP	< -0.25
KSIVSTKMGDGGPILSS	< -0.25
KSIVTSSGITTFQL	-0.229
KSKSSRIRCGLRGS	< -0.25
KSLGGCLIPNWPDEQGGIQR	< -0.25
KSNLSNRLELRFGLPSGPQT	< -0.25
KSNRATLIWSLTEV	< -0.25
KSPTASS	< -0.25
KSRAGGEVSTAG	< -0.25
KSRAGRMVRCVPVCDTGARS	< -0.25

Reprinted at random: two records from the list
Substance	growth estimate
KSAYTFGRARLNSEDAGITG	< -0.25
KFQLPMIAGREGYAVSKRC	< -0.25

Carrying on.

Substance	growth estimate
KSRAIVTDRSLGDSFVANVG	< -0.25
KSRLRKYWSYAIQYIIIGVS	< -0.25
KSRYRTHHTRT	< -0.25
KSS	< -0.25
KSSTCHHFLANNA	< -0.25
KSTW	< -0.25
KSYLSNERPYG	< -0.25
KSYVLWMGCQRRLSWFAENE	< -0.25
KTAIAA	< -0.25
KTEIENMYLWIRFRMGSG	< -0.25
KTESPLGS	< -0.25
KTETFPTSNRVGIQPPQLCH	< -0.25
KTGHFTASIFSTVPLHARCG	< -0.25
KTGPISRT	< -0.25
KTKGILG	-0.231
KTLNCRQRQPQSGNHETDL	< -0.25
KTLSSPWFIRLRFPGKQFR	< -0.25
KTPHDRYLTLRVKG	< -0.25
KTRDLTVRQLERGCPPHVIP	< -0.25
KTRHSGRRTVDSQINDTNGP	< -0.25
KTRVCRCGRGPPSGTGMLTV	< -0.25

Taken from the listing (6 entries):
Substance	growth estimate
KSGMYWGLLEPLSMPKQCSP	< -0.25
KSGRDLYVAGIAKIASPCGR	< -0.25
KSGRKEDCRLTKKAKQRKTA	< -0.25
KSGSDSLWGMVTVASVSVWP	< -0.25
KSIVSTKMGDGGPILSS	< -0.25
KSIVTSSGITTFQL	-0.229
